Measurements from “University of Dundee, Small-Polar-MMV Screening Library” (2021), ChEMBL document CHEMBL3988442.

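Phenotypic screen: M. tuberculosis growth, cholesterol and DPPC medium, 4 days; the read-out is not stated. Tested at 500 µM. Direction is inferred from retests: higher values go with more growth inhibition. About 18,000 compounds were tested under these conditions; 5% (about 900) showed 50% or more at least once.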

Values are the deposited “Percent Effect”, in %.
The controls that fix the scale are not given in the record; negative values are as filed.
The compounds are a random part of those screened.

For CS(=O)(=O)NC1CNC1 the result was -21.86%. COc1ccc(N2C(=O)C=CC2=O)cc1OC gave -21.88%. CNC(=O)[C@H]1CC[C@H](CNC(=O)c2cn[nH]c2)CC1 read -14.69%. For COc1cc(CNC(=O)NCC(F)(F)F)ccn1 the result was 9.179%. Result for Cc1ccccc1CN(C)CC(=O)N1CCN(C)CC1 was 0.4458%. For CC(C)(C)CC(=O)NCCNC(=O)c1ccco1 the result was -13.77%.

With COCCCC(=O)N1CCN(CC(C)O)CC1 (stereo not shown) the screen gave -5.065%. O=C(Nc1nccs1)c1csnn1 read 3.643%. CCOc1ncccc1CNC(=O)c1sc(C)nc1C read 23.05%. For Cn1cncc1CCO the result was -8.1%. With O=C(Cc1cccs1)NCC1CCCCC(=O)N1 (stereo not shown) the screen gave 4.188%. With O=C1CCC(N2CCNCC2)CCN1 (stereo not shown) the screen gave -0.8068%.

For Cc1ccc(CNCCN2CCOCC2)s1 the result was 1.808%. With OCc1cnn2c1CCCC2 the screen gave -4.475%. For NC1CCN(Cc2ccc(F)c(F)c2)CC1 the result was 29.31%. C=C(C)CN(CC)C(=O)CN1CCC(O)CC1 read -1.604%. For CN(C)C(CNC(=O)c1ccncc1)c1ccco1 (stereo not shown) the result was -6.697%. For CCN(C(=O)c1cccnc1SC)[C@H]1COC[C@@H]1O the result was 7.571%.

O=C(NCCS(=O)(=O)N1CCSCC1)c1ccccc1 gave 0.4997%. CCCSCC(=O)NC(C)Cn1cncn1 (stereo not shown) read 1.934%. With Cc1cc(NC(=O)C2CCN(CC(C)C)CC2)no1 the screen gave -13.07%. With O=C(Nc1ncccc1F)C1CC=CC1 the screen gave 5.947%. With c1ccc(C2CCCN2)nc1 (stereo not shown) the screen gave 9.272%. Result for CCc1nccn1CCC(=O)N1C[C@@H](N)C[C@H]1C(=O)O was -1.078%.

For CN(C)c1ncc(CN2CCCC(O)(CO)CC2)cn1 (stereo not shown) the result was 29.4%. With Cc1noc(CCCC(=O)NC2CCCCNC2=O)n1 (stereo not shown) the screen gave -7.111%. For Cc1ncncc1C(=O)NCC(C)(C)CN(C)C the result was 0.6288%. O=C(c1cncn1-c1ccccc1)N1CCSCC1 gave -5.019%. For O=C(NCCc1ccccn1)Nc1cn[nH]c1 the result was 11.93%. Cc1cc(NC2CCC(=O)N(C)C2)nc(C)n1 (stereo not shown) gave -13.7%.

For CCC(CO)NC(=O)Nc1ccc(N2CCCC2)nc1 (stereo not shown) the result was -7.472%. OCC1CCN(C2CCCNC2)CC1 (stereo not shown) gave -8.525%. For CN1C(=O)[C@H]2CN(Cc3ccc(Cl)cc3F)C[C@H]2C1=O the result was 1.9%. With Cc1c[nH]c(CNC(=O)CSc2ccccn2)n1 the screen gave 0.4666%. For CCC[C@H]1CN(C(=O)Cc2cccc(OC)c2)C[C@@H]1N the result was 21.76%. For Cc1ccc(C(=O)NCCSc2nccn2C)c(=O)[nH]1 the result was 2.509%.

With COC(=O)CCn1cc(C(N)=O)cn1 the screen gave -0.5961%. O=C(NCCNS(=O)(=O)Cc1ccccc1)C1CCC1 read 5.682%. With NCc1cccc(OCc2ccccn2)c1 the screen gave 40.36%. Result for NC(=O)CN1CCCN(C(=O)c2sccc2Br)CC1 was -11.36%. CCCN(CCC)S(=O)(=O)N1CCNCC1 gave 0.5007%. Result for CC(C)n1cnc(S(=O)(=O)NCC2CCCCN2)c1 (stereo not shown) was 2.317%.

With Nc1cccnc1N1CCC(CO)CC1 the screen gave -3.427%. Result for CN1N=C(C(=O)NCC2CCOC2)CCC1=O (stereo not shown) was 5.798%. With NC(=O)CC(N)C1CCCCC1 (stereo not shown) the screen gave 3.893%. With CC(C)CS(=O)(=O)CCNC(=O)c1ccc(=O)n(C)n1 the screen gave 7.796%. For O=C(CC1=CCCCC1)N1CCOc2ccncc21 the result was 31.5%. Result for CCOc1ccc2c(c1)C=C(C(=O)NC)CO2 was 58.69%.

CN(C1CCCCC1)S(=O)(=O)N1CCCC1C(N)=O (stereo not shown) gave 22.41%. For COC(=O)c1cccc(S(=O)(=O)NC(C)C(N)=O)c1 (stereo not shown) the result was -8.808%. For CCOc1cc(C)ccc1CN the result was -13.9%. Result for CSc1ncccc1C(=O)N1CCCC(C)(C#N)C1 (stereo not shown) was 12.92%. For CCN(CC)CCOc1ccccc1CN the result was -23.51%.

The last 4 entries again:

compound	effect
COC(=O)c1cccc(S(=O)(=O)NC(C)C(N)=O)c1 (stereo not shown)	-8.808%
CCOc1cc(C)ccc1CN	-13.9%
CSc1ncccc1C(=O)N1CCCC(C)(C#N)C1 (stereo not shown)	12.92%
CCN(CC)CCOc1ccccc1CN	-23.51%